{"sequences": {"note": "Sequences of proteins named here, by UniProt entry; tags and fusion partners are left off.", "UniProt P12004": "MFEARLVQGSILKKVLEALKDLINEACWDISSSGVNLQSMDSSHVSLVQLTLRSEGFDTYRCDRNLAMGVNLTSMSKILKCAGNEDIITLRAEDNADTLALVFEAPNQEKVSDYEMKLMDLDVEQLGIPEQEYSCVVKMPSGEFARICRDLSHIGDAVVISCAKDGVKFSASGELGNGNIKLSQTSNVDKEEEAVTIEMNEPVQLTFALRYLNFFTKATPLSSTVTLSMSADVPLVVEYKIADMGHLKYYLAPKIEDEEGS"}, "source": "paper PMC12003248", "about": "“ERCC6L2 mitigates replication stress and promotes centromere stability” (Cell Reports, 2023)", "target": "T1, Strep-tagged ERCC6L2^701−1053 (human) (UniProt Q5T890)", "T1 sequence": "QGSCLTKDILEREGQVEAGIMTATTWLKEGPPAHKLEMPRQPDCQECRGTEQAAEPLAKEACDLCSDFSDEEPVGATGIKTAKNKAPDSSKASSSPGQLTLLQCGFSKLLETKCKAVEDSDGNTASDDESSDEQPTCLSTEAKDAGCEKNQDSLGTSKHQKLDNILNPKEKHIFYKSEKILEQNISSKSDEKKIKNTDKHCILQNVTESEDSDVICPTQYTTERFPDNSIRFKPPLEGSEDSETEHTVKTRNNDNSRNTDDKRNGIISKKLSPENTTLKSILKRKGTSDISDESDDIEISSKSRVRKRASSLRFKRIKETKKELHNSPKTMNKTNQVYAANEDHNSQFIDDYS", "test": "co-IP; extracts of cell lines expressing Strep-tagged ERCC6L2 constructs applied to StrepTactin Sepharose beads; lysis buffer 50 mM Tris pH 8, 150 mM NaCl, 1 mM DTT, 1% Triton X-, Benzonase; eluted with biotin; Western blot", "note": "Results are given in words; binding and its absence hold for the method and conditions named. In cells and extracts the contact can be indirect. Some binding calls cover weakened binding; strength is not graded here. Where a sequence is shown, tags or fusion partners need not be part of it."}
{"substance": "Endogenous PCNA (from UniProt P12004 1-261)", "values": [{"measurement": "binding", "value": "binds"}]}
